The test system of data set [1] is primary human hepatic stellate cells. Put plainly: META-rank composite score over aSMA, ProC3, EdU in the HSC model. Type of data set: cell-based. The settings on record: lower score = more optimal.
Another data set deals with M1 macrophage. Briefly: META-rank composite score over IL-6 and TNFa in the M1 macrophage model. Type of data set: cell-based, human.

Consider `CC(=O)N[C@@H](CS)C(=O)O` [Nac, N-acetylcysteine], for which the Meta-Rank was determined as 7.667 in data set [1] (5 mM) and 3.5 with M1 macrophage (5 mM).
In the case of `N=C(N)NCCC[C@H](N)C(=O)O` [R, L-arginine], in data set [1] (AA Conc. 25X), the Meta-Rank amounted to 11.667.
Turning to `NC(=O)CC[C@H](N)C(=O)O` [Q, L-glutamine], the Meta-Rank came to 11.667 in data set [1] (AA Conc. 20X) and 18 in the data set with M1 macrophage (AA Conc. 20X).
For `C[N+](C)(C)C[C@H](O)CC(=O)[O-]` [Car, L-carnitine], the values for the Meta-Rank (in data set [1] (AA Conc. 5X); in the data set on M1 macrophage (5 mM)) were 14.333 and 10, respectively.
For the compound `CC(C)C[C@H](N)C(=O)O` [L, L-leucine], the Meta-Rank in data set [1] (AA Conc. 20X) was 17.333; with M1 macrophage (AA Conc. 20X), 13.
In the case of `N[C@@H](CO)C(=O)O` [S, L-serine], the Meta-Rank in data set [1] (AA Conc. 25X) turned out to be 14; in the data set with M1 macrophage (AA Conc. 25X), 15.5.
Turning to `CC(C)[C@H](N)C(=O)O` [V, L-Valine], the Meta-Rank in data set [1] (AA Conc. 20X) was found to be 13.667; in the data set on M1 macrophage (AA Conc. 20X), 12.
With `CC[C@H](C)[C@H](N)C(=O)O` [I, L-isoleucine], the Meta-Rank in data set [1] (AA Conc. 20X) came out at 19; in the data set with M1 macrophage (AA Conc. 20X), 14.

The values above are taken from patent US20190388377A1, “COMPOSITIONS AND METHODS FOR THE TREATMENT OF LIVER DISEASES AND DISORDERS” (AXCELLA HEALTH INC., priority 2018, published 2019).
